Reference: PubChem BioAssay AID743454 (Peter MacCallum Cancer Centre, 2014)

Purpose: 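Knock-downs lowering viability or raising caspase 3/7 activity in vorinostat-treated resistant cells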 (primary screen)
Cell system: human HCT116-VR colon cancer cells, selected for vorinostat resistance
Knock-down reagent: siRNA pool against human genes, 40 nM siRNA pool
Time to read-out: vorinostat for 24 h, read-out about 72 h after transfection
Conditions: vorinostat at 2.5 µM final
Measured: 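Cell viability by CellTiter-Fluor and caspase 3/7 activity by luminescence, each scaled to mock wells per plate, duplicates averaged, then robust z-scored over all plates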
Direction: viability robust z-score: higher = more viable cells than screen typical; caspase robust z-score: higher = more caspase 3/7 activity than screen typical
Active means: 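Hits are knock-downs in viability class RV1/RV2 or caspase class CA1/CA2, excluding ones that killed cells in the no-drug cell-count arm; hits then retested with single siRNAs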
The whole screen tested about 18,000 reagents; this is an unselected part. Of all reagents, 450 (2.5%) are marked active. 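Single biological run; no consistent viability z cut-off exists, so the class columns, not z-scores, define the calls.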 Reagent sequences are not shown.

viability hit class | caspase hit class | viability robust z-score | caspase robust z-score | Call | gene knocked down
no change | no change | 0.12 | 0.03 | inactive | RASGRP4 (RAS guanyl releasing protein 4)
no change | no change | -1.64 | 3.91 | inactive | C1QTNF8 (C1q and TNF related 8)
no change | CA2 (caspase activation) | -4.49 | 5.8 | active | GUCY2D (guanylate cyclase 2D, retinal)
no change | no change | 0.6 | -0.73 | inactive | AMPD3 (adenosine monophosphate deaminase 3)
no change | no change | 0.22 | -0.88 | inactive | ITGAV (integrin subunit alpha V)
no change | no change | -0.64 | 0.02 | inactive | DERA (deoxyribose-phosphate aldolase)
no change | no change | -0.06 | 1.73 | inactive | SLC39A11

Next part, starting with the last 2 of the part before.
viability hit class | caspase hit class | viability robust z-score | caspase robust z-score | Call | gene knocked down
no change | no change | -0.64 | 0.02 | inactive | DERA (deoxyribose-phosphate aldolase)
no change | no change | -0.06 | 1.73 | inactive | SLC39A11
no change | no change | 0.92 | -0.92 | inactive | RICTOR (RPTOR independent companion of MTOR complex 2)
no change | no change | -0.07 | 1.24 | inactive | BSN (bassoon presynaptic cytomatrix protein)
no change | CA1 (caspase activation) | 0.17 | 5.96 | active | ZNF354B (zinc finger protein 354B)
no change | no change | -0.29 | 1.94 | inactive | PLBD2 (phospholipase B domain containing 2)
no change | no change | 0.57 | -1.05 | inactive | TYW2 (tRNA wybutosine-synthesizing protein 2)
no change | no change | -2.3 | -0.48 | inactive | LRRC45 (leucine rich repeat containing 45)
no change | no change | 0.99 | 0.82 | inactive | GNA13 (G protein subunit alpha 13)
no change | no change | 0.14 | -0.86 | inactive | HTRA2 (HtrA serine peptidase 2)
no change | no change | -0.46 | -0.46 | inactive | PM20D2 (peptidase M20 domain containing 2)
no change | no change | 0.16 | -0.45 | inactive | TRIM47 (tripartite motif containing 47)
no change | no change | -0.05 | -0.74 | inactive | CKS1B (CDC28 protein kinase regulatory subunit 1B)
no change | CA1 (caspase activation) | -1 | 5.28 | active | OXTR (oxytocin receptor)
no change | no change | -0.15 | 0.56 | inactive | ARF3 (ARF GTPase 3)
no change | no change | -0.98 | 1.38 | inactive | CAPN10 (calpain 10)
no change | no change | 0.03 | -0.66 | inactive | GGPS1 (geranylgeranyl diphosphate synthase 1)
no change | no change | 0.21 | -0.94 | inactive | MIER2 (MIER family member 2)
